Results reported in PMC8559680.
Results are given in words; binding and its absence hold for the method and conditions named. For part of these data: In cells and extracts the contact can be indirect. Some results given as binding are weak or reduced against the parent protein; the word gives no strength. For part of these data: Where a sequence is shown, tags or fusion partners need not be part of it.

T1: Yth1 (untagged) (yeast) (UniProt Q06102)
T1 sequence: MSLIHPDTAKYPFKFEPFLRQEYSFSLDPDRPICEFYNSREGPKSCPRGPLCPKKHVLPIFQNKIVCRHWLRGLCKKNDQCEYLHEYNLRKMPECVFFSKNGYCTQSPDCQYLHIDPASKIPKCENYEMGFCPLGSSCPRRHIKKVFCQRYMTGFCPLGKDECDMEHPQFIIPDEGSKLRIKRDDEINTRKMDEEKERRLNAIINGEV

T2: Pfs2-3C-SII (yeast) (UniProt P42841)
T2 sequence: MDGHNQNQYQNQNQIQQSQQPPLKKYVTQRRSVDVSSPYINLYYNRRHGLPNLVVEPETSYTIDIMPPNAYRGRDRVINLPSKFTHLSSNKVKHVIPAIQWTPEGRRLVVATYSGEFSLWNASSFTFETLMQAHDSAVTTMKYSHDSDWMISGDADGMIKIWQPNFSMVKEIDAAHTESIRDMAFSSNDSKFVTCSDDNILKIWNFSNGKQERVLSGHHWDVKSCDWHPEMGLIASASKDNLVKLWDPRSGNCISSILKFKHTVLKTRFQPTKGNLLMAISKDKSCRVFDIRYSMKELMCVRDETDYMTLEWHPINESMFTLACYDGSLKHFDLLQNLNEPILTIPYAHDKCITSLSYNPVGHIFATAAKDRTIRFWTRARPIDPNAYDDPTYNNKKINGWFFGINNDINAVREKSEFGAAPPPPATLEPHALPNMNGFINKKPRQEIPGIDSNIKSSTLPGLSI

T3: Ref2-3C-SII (yeast) (UniProt P42073)
T3 sequence: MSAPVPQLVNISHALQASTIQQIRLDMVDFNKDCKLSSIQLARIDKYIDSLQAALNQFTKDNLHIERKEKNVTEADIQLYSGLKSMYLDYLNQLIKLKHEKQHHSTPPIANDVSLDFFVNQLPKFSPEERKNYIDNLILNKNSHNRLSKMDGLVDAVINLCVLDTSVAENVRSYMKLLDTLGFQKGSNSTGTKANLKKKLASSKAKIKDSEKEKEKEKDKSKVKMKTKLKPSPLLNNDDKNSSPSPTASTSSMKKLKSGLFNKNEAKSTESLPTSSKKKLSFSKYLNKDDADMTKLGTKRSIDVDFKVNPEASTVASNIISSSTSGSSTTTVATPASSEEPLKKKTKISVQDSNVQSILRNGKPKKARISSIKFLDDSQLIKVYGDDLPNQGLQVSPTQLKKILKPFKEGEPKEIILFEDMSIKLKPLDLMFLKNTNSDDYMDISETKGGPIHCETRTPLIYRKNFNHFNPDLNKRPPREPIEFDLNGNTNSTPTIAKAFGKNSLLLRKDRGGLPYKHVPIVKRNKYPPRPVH

T4: 8His-3C-Yth1 (yeast) (UniProt Q06102)
T4 sequence: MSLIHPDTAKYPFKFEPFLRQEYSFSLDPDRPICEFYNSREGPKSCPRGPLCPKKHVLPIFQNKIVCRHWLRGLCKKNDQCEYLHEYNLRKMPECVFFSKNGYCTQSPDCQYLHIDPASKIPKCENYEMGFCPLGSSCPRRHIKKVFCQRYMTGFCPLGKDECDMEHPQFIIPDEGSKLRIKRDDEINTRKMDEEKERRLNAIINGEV


Tests used:
[1] = biological target: T1, Yth1 (untagged) (yeast); test: co-purification (protocol of the wild-type polymerase module); Sf9 cells co-infected with the virus of a Fip1 central LCR variant and the virus of the Cft1, Pfs2-SII and Yth1 complex; four-protein polymerase module purified
[2] = biological target: T2, Pfs2-3C-SII (yeast); test: pull-down; StrepII (SII) tag on Pfs2 as bait; polymerase module subunits co-expressed in Sf9 cells; clarified lysate on Streptactin resin, 4°C; eluate analysed by SDS-PAGE
[3] = biological target: T3, Ref2-3C-SII (yeast); test: co-purification (StrepTactin affinity, anion exchange, size exclusion); StrepII tag on Ref2 as bait; Sf9 cells co-infected with two baculoviruses (nuclease and polymerase modules; phosphatase module); purified complex analysed by SDS-PAGE
[4] = biological target: T1, Yth1 (untagged) (yeast); test: pull-down; StrepII (SII) tag on Pfs2 as bait; polymerase module subunits co-expressed in Sf9 cells; clarified lysate on Streptactin resin, 4°C; eluate analysed by SDS-PAGE
[5] = biological target: T4, 8His-3C-Yth1 (yeast); test: as above

Row | binding [1] | binding [2] | binding [3] | Binder | further results
1 | binds |  |  | Fip1_(Puf3) (protein, UniProt P45976 1-109; P45976 171-327) MSSSEDEDDKFLYGSDSELALPSSKRSRDDEADAGASSNPDIVKRQKFDSPVEETPATARDDRSDEDIYSDSSDDDSDSDLEVIISLGPDPTRLDAKLLDSYSTAATSSTAVNSNPNASESISGNSAFNFPSAPVSSLDTNNYGQRRPSLLSGTSPTSSFFNSSMISSNYIFDSVGITTIDPEVLKEKPWRQPGANLSDYFNYGFNEFTWMEYLHRQEKLQQDYNPRRILMGLLSLQQQGKLNSANDTDSNLGNIIDNNNNVNNANMSNLNSNMGNSMSGTPNPPAPPMHPSFPPLPMFGSFPPFPMPGMMPPMNQQPNQNQNQNSK | 
2 | binds |  |  | Fip1_(scramble) (protein, UniProt P45976 1-109; P45976 171-327) MSSSEDEDDKFLYGSDSELALPSSKRSRDDEADAGASSNPDIVKRQKFDSPVEETPATARDDRSDEDIYSDSSDDDSDSDLEVIISLGPDPTRLDAKLLDSYSTAATSSNTTDALSGAIGNPIMRTAVSTTVVDESTGLADGEVTKESDDKDIVIGTQKSTVEAKSKENTIFDSVGITTIDPEVLKEKPWRQPGANLSDYFNYGFNEFTWMEYLHRQEKLQQDYNPRRILMGLLSLQQQGKLNSANDTDSNLGNIIDNNNNVNNANMSNLNSNMGNSMSGTPNPPAPPMHPSFPPLPMFGSFPPFPMPGMMPPMNQQPNQNQNQNSK | 
3 |  | binds | binds | Cft1 (protein, UniProt Q06632 1-1357) MNVYDDVLDATVVSHSLATHFTTSDYEELLVVRTNILSVYRPTRDGKLYLTDEFKFHGLITDIGLIPQKDSPLSCLLLCTGVAKISILKFNTLTNSIDTLSLHYYEGKFKGKSLVELAKISTLRMDPGSSCALLFNNDIIAFLPFHVNKNDDDEEEEDEDENIDDSELIHSMNQKSQGTNTFNKRKRTKLGDKFTAPSVVLVASELYEGAKNIIDIQFLKNFTKPTIALLYQPKLVWAGNTTISKLPTQYVILTLNIQPAESATKIESTTIAFVKELPWDLHTIVPVSNGAIIVGTNELAFLDNTGVLQSTVLLNSFADKELQKTKIINNSSLEIMFREKNTTSIWIPSSKSKNGGSNNDETLLLMDLKSNIYYIQMEAEGRLLIKFDIFKLPIVNDLLKENSNPKCITRLNATNSNKNMDLFIGFGSGNALVLRLNNLKSTIETREAHNPSSGTNSLMDINDDDDEEMDDLYADEAPENGLTTNDSKGTVETVQPFDIELLSSLRNVGPITSLTVGKVSSIDDVVKGLPNPNKNEYSLVATSGNGSGSHLTVIQTSVQPEIELALKFISITQIWNLKIKGRDRYLITTDSTKSRSDIYESDNNFKLHKGGRLRRDATTVYISMFGEEKRIIQVTTNHLYLYDTHFRRLTTIKFDYEVIHVSVMDPYILVTVSRGDIKIFELEEKNKRKLLKVDLPEILNEMVITSGLILKSNMCNEFLIGLSKSQEEQLLFTFVTADNQIIFFTKDHNDRIFQLNGVDQLNESLYISTYQLGDEIVPDPSIKQVMINKLGHDNKEEYLTILTFGGEIYQYRKLPQRRSRFYRNVTRNDLAITGAPDNAYAKGVSSIERIMHYFPDYNGYSVIFVTGSVPYILIKEDDSTPKIFKFGNIPLVSVTPWSERSVMCVDDIKNARVYTLTTDNMYYGNKLPLKQIKISNVLDDYKTLQKLVYHERAQLFLVSYCKRVPYEALGEDGEKVIGYDENVPHAEGFQSGILLINPKSWKVIDKIDFPKNSVVNEMRSSMIQINSKTKRKREYIIAGVANATTEDTPPTGAFHIYDVIEVVPEPGKPDTNYKLKEIFQEEVSGTVSTVCEVSGRFMISQSQKVLVRDIQEDNSVIPVAFLDIPVFVTDSKSFGNLLIIGDAMQGFQFIGFDAEPYRMISLGRSMSKFQTMSLEFLVNGGDMYFAATDADRNVHVLKYAPDEPNSLSGQRLVHCSSFTLHSTNSCMMLLPRNEEFGSPQVPSFQNVGGQVDGSVFKIVPLSEEKYRRLYVIQQQIIDRELQLGGLNPRMERLANDFYQMGHSMRPMLDFNVIRRFCGLAIDRRKSIAQKAGRHAHFEAWRDIINIEFSMRSLCQGK | 
4 |  |  | binds | Fip1_(Δ110–180) (protein, UniProt P45976) MSSSEDEDDKFLYGSDSELALPSSKRSRDDEADAGASSNPDIVKRQKFDSPVEETPATARDDRSDEDIYSDSSDDDSDSDLEVIISLGPDPTRLDAKLLDSYSTAATSSDPEVLKEKPWRQPGANLSDYFNYGFNEFTWMEYLHRQEKLQQDYNPRRILMGLLSLQQQGKLNSANDTDSNLGNIIDNNNNVNNANMSNLNSNMGNSMSGTPNPPAPPMHPSFPPLPMFGSFPPFPMPGMMPPMNQQPNQNQNQNSK | binding [4]: binds
5 |  | binds |  | 8His-3C-Yth1 (protein, UniProt Q06102 1-208) MSLIHPDTAKYPFKFEPFLRQEYSFSLDPDRPICEFYNSREGPKSCPRGPLCPKKHVLPIFQNKIVCRHWLRGLCKKNDQCEYLHEYNLRKMPECVFFSKNGYCTQSPDCQYLHIDPASKIPKCENYEMGFCPLGSSCPRRHIKKVFCQRYMTGFCPLGKDECDMEHPQFIIPDEGSKLRIKRDDEINTRKMDEEKERRLNAIINGEV | 
6 |  |  | binds | Fip1 (protein, UniProt P45976 1-327) MSSSEDEDDKFLYGSDSELALPSSKRSRDDEADAGASSNPDIVKRQKFDSPVEETPATARDDRSDEDIYSDSSDDDSDSDLEVIISLGPDPTRLDAKLLDSYSTAATSSSKDVISVATDVSNTITKTSDERLITEGEANQGVTATTVKATESDGNVPKAMTGSIDLDKEGIFDSVGITTIDPEVLKEKPWRQPGANLSDYFNYGFNEFTWMEYLHRQEKLQQDYNPRRILMGLLSLQQQGKLNSANDTDSNLGNIIDNNNNVNNANMSNLNSNMGNSMSGTPNPPAPPMHPSFPPLPMFGSFPPFPMPGMMPPMNQQPNQNQNQNSK | binding [5]: binds
